Results are given in words; binding and its absence hold for the method and conditions named. Binding seen in cells or lysates may run through a third protein. Some entries that bind do so weakly or less than the wild type.

This test concerns the target T1, receptor-interacting protein kinase 1 (RIPK1), endogenous in mouse erythrocytes (mouse (endogenous in mouse erythrocytes)), Q60855.
T1 chain: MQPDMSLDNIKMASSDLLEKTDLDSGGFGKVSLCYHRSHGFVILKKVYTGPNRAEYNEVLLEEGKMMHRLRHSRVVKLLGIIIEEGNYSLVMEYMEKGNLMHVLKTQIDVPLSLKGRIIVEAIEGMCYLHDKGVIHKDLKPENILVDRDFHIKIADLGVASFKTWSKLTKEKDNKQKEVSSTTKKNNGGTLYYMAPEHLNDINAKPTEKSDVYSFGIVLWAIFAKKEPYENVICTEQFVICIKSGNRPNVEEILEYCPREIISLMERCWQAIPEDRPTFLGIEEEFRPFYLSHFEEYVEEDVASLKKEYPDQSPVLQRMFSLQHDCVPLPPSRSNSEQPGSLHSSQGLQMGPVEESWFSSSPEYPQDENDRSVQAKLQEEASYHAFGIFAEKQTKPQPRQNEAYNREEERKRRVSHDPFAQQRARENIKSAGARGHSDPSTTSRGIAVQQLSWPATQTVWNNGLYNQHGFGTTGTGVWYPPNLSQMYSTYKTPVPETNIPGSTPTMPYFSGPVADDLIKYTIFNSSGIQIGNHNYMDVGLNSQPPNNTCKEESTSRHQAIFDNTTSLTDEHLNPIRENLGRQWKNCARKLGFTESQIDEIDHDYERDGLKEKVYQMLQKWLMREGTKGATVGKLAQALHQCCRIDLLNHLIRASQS
The test is described as follows: co-IP; endogenous proteins in lysates of erythrocytes from mice 24 h after LPS injection, with TMG or PBS; RIPK1 immunoprecipitated, co-immunoprecipitated RIPK3 blotted. To be noted: remark: other sources report otherwise.

B1: receptor-interacting protein kinase 3 (RIPK3), endogenous in mouse erythrocytes, Q9QZL0 1-486 (protein)
chain: MSSVKLWPTGASAVPLVSREELKKLEFVGKGGFGVVFRAHHRTWNHDVAVKIVNSKKISWEVKAMVNLRNENVLLLLGVTEDLQWDFVSGQALVTRFMENGSLAGLLQPECPRPWPLLCRLLQEVVLGMCYLHSLNPPLLHRDLKPSNILLDPELHAKLADFGLSTFQGGSQSGSGSGSGSRDSGGTLAYLDPELLFDVNLKASKASDVYSFGILVWAVLAGREAELVDKTSLIRETVCDRQSRPPLTELPPGSPETPGLEKLKELMIHCWGSQSENRPSFQDCEPKTNEVYNLVKDKVDAAVSEVKHYLSQHRSSGRNLSAREPSQRGTEMDCPRETMVSKMLDRLHLEEPSGPVPGKCPERQAQDTSVGPATPARTSSDPVAGTPQIPHTLPFRGTTPGPVFTETPGPHPQRNQGDGRHGTPWYPWTPPNPMTGPPALVFNNCSEVQIGNYNSLVAPPRTTASSSAKYDQAQFGRGRGWQPFHK
On to B1, for which the binding entry is on record as “binds”.

These data come from publication PMC10289004.
